No constants are given. Whether binding was seen depends on the method and setting.
Biological target: His6-tagged LapG (P. fluorescens)
Assay: pull-down; His6-LapG bound to NiNTA resin, untagged LapD output domain variants added, 1 h at 4°C; 25 mM Tris-HCl pH 8.4, 75 mM NaCl, 25 mM KCl, 40 mM imidazole; eluates on SDS-PAGE (Coomassie; SYPRO Ruby for quantification); both purified

B1: LapD^output W125E (domain or fragment, UniProt Q3KK31 22-151)
chain: SFMVSLESSRTQYVNQLRSHAQDAATALALSLTPNIDDPAMVELLVSSIFDSGYYSSIRVVDLKTDQTIVERNGIPAVTNVPDWFVKLIGLEPAGGDALVSRGEEQAARVEVVSHPMFALAKLWQSALGS
Q: With B1 as the binder, how does the binding read?
A: no binding
